Taken from: PubChem BioAssay AID1259254 (NCATS, 2017)
The deposit covers about 59,000 reagents; below is a part drawn at random. Over the whole deposit, about 1,550 (2.6%) were called active. 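G2 share is only a proxy for re-replication; each gene was hit by three separate siRNAs, and active genes were retested.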 The numbers tell different reagents against one gene apart. Not all columns of the deposit are shown. The record does not give: the amount of reagent.

- Screen: 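Finding genes that stop cells copying their DNA twice in one cycle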 (primary screen)
- Cell system: human HCT116 colorectal cancer cells
- Knock-down reagent: single siRNA against human genes
- Duration: 3 days
- Detection: 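Nuclei stained with Hoechst and imaged; cell-cycle phase assigned by DNA content; G2 share scaled per plate, non-targeting siRNA 0%, GMNN siRNA 100%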
- Reading the numbers: G2 robust z-score: higher = more G2 cells, more excess DNA replication
- Hit rule: 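An siRNA counts as active if its G2 robust z-score lies at least 5 MADs above the screen median; here such calls match roughly 38% of GMNN control or more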

G2 robust z-score, by target gene and reagent
ZNF468 (GeneID 90333): #1 0.076 inactive; #2 0.225 inactive; #3 -0.438 inactive
PTPRQ (GeneID 374462): #1 1.76 inactive; #2 -0.889 inactive; #3 0.468 inactive
LRG1 (GeneID 116844): #1 0.303 inactive; #2 -0.377 inactive; #3 -0.206 inactive
RASGRF1 (GeneID 5923): #1 5.1 active; #2 3.49 inactive; #3 0.539 inactive
ASCC3 (GeneID 10973): #1 2.57 inactive; #2 0.104 inactive; #3 -1.1 inactive
RPLP1 (GeneID 6176): #1 1.36 inactive; #2 0.378 inactive; #3 0.588 inactive
CDK8 (GeneID 1024): #1 -0.0762 inactive; #2 -1.17 inactive; #3 0.431 inactive
EMP2 (GeneID 2013): #1 -0.646 inactive; #2 -0.444 inactive; #3 0.0432 inactive

Reprinted from the listing, 3 entries:
G2 robust z-score, by target gene and reagent
PTPRQ (GeneID 374462): #3 0.468 inactive
LRG1 (GeneID 116844): #1 0.303 inactive; #2 -0.377 inactive

The results go on.
G2 robust z-score, by target gene and reagent
PKD1L1 (GeneID 168507): #1 -0.396 inactive; #2 0.281 inactive; #3 -1.08 inactive
B3GNT9 (GeneID 84752): #1 2.19 inactive; #2 -0.568 inactive; #3 -0.327 inactive
GAS7 (GeneID 8522): #1 -0.608 inactive; #2 -0.276 inactive; #3 0.233 inactive
NASP (GeneID 4678): #1 4.22 inactive; #2 -0.431 inactive; #3 -0.858 inactive
SPAG8 (GeneID 26206): #1 1.89 inactive; #2 -0.776 inactive; #3 -0.219 inactive
HOOK3 (GeneID 84376): #1 -0.435 inactive; #2 -0.268 inactive; #3 -0.459 inactive
UPK2 (GeneID 7379): #1 1.22 inactive; #2 0.204 inactive; #3 -0.275 inactive
BTNL8 (GeneID 79908): #1 -1.06 inactive; #2 -0.934 inactive; #3 -1.03 inactive
ZC3H6 (GeneID 376940): #1 -0.369 inactive; #2 0.215 inactive; #3 0.352 inactive
RRS1 (GeneID 23212): #1 2.82 inactive; #2 1.97 inactive; #3 -0.0582 inactive
SMR3B (GeneID 10879): #1 0.387 inactive; #2 2.66 inactive; #3 -1.12 inactive
TSPAN31 (GeneID 6302): #1 0.321 inactive; #2 -0.769 inactive; #3 0.78 inactive
CDKL5 (GeneID 6792): #1 5.21 active; #2 -1.21 inactive; #3 -0.59 inactive
FLRT3 (GeneID 23767): #1 -1.04 inactive; #2 -1.54 inactive; #3 0.321 inactive
AKAP17A (GeneID 8227): #1 -0.909 inactive; #2 0.574 inactive; #3 2.05 inactive
